# Measured values as given in patent US20190358182A1, “NOVEL MECHANISM FOR DECREASING OPIOID REWARD” (THE TRUSTEES OF INDIANA UNIVERSITY, priority 2018, published 2019).
# Columns and labels:
# rats = settings: rat, in vivo
# Experimental: Method: On CPP day 1 and 2, rats are allowed to habituate to the apparatus. On CPP day 3, rats are again allowed to explore the apparatus (30 min) to verify absence of chamber bias. Only rats that fail to show a chamber bias are used for CPP experiments. Rats used for CPP are injected (i.p.) with test drug (day 4, 6 and 8) prior to placement in the drug-paired chamber. On alternate days (day 5, 7 and 9), rats receive vehicle (i.p.) and are placed in the opposite chamber. Mechanical paw withdrawal thresholds to an electronic von Frey anesthesiometer are measured in duplicate through the grid floor of our custom apparatus before and after each drug pairings to assess possible changes in nociceptive thresholds. Motor behavior is tracked by photobeams. CPP is measured (day 10) in the drug-free state.
# This study requires 19 groups of rats evaluated using a conditioned place preference approach. In the same animals we measure responsiveness to punctuate mechanical stimulation with an electrovonfrey anesthesiometer (Rahn et al. (2014) Molecular Pain 2014, 10:27 DOI: 10.1186/1744-8069-10-27) before and after all drug or vehicle pairings. […] Compounds are tested under blinded conditions. […] N=190: This number reflects testing of 19 cohorts of 10 rats.
# DA efflux in NAc shell = test: Fast-scan cyclic voltammetry of electrically evoked DA in NAc shell; format: in vivo, rat; settings: medial forebrain bundle stimulation; morphine 6 mg/kg i.p.; ZL006 10 mg/kg i.p.; FIG. 7A, 7B
# From the text: Design and Rationale: Although FSCV can record spontaneously occurring DA transients in behaving animals, the anesthetized preparation is preferred because it provides reliable and reproducible DA signals independent of behavioral activity. In fact, the fluctuating and intermittent nature of behavior-related DA signals (e.g.,) could confound efforts to establish a first-ever characterization of PSD95-nNOS disrupters on DA dynamics. […] Rats are fixed in a stereotaxic frame, and a carbon-fiber working electrode (6 μm diameter) is lowered into NAc shell. A bipolar stimulating electrode is lowered over the ipsilateral MFB to evoke endogenous DA release. An Ag/AgCl reference is placed on the contralateral cortex. […] Voltammograms are obtained every 100 ms at a scan rate of 400 v/s.
# The basic design is to collect baseline DA signals (30 min) evoked by MFB stimulation, administer (ip) test drug(s) or vehicle, and collect post-administration evoked DA signals. […] The effects of each compound (injected i.p.) will be monitored for at least 60 min and tested in separate groups of rats (n=10/group). […]
# Stimulations at 60 Hz are applied every 2 min to ensure renewal of the readily releasable DA pool. […] [DA]p and Vmax are determined by the above equation in combination with curve-fitting software that incorporates a simplex minimization algorithm.
Compound,CPP or aversion in the absence of morphine (rats),"evoked dopamine (DA) efflux, drug alone (DA efflux in NAc shell)"
O=C(O)c1ccc(NCc2cc(Cl)cc(Cl)c2O)cc1O [ZL006],will not produce either CPP or aversion,
"CN1CC[C@]23c4c5ccc(O)c4O[C@H]2[C@@H](O)C=C[C@H]3[C@H]1C5 [morphine, reference compound]",,produces robust dopamine efflux
